Columns and labels:
TRPV5 = settings: read-out: IC50 of TRPV5 inhibition; cited from earlier work
wild-type rbTRPV5 = wild-type rbTRPV5 (Oryctolagus cuniculus, UniProt Q9XSM3); assay: cell-based
rbTRPV5 F472A mutant = rbTRPV5 F472A mutant (Oryctolagus cuniculus, UniProt Q9XSM3, F472A); assay: cell-based
rbTRPV5 L475A mutant = rbTRPV5 L475A mutant (Oryctolagus cuniculus, UniProt Q9XSM3, L475A); assay: cell-based

Chains of the proteins cited; added tags and fusions are not shown.
UniProt Q9XSM3, whole entry F472A: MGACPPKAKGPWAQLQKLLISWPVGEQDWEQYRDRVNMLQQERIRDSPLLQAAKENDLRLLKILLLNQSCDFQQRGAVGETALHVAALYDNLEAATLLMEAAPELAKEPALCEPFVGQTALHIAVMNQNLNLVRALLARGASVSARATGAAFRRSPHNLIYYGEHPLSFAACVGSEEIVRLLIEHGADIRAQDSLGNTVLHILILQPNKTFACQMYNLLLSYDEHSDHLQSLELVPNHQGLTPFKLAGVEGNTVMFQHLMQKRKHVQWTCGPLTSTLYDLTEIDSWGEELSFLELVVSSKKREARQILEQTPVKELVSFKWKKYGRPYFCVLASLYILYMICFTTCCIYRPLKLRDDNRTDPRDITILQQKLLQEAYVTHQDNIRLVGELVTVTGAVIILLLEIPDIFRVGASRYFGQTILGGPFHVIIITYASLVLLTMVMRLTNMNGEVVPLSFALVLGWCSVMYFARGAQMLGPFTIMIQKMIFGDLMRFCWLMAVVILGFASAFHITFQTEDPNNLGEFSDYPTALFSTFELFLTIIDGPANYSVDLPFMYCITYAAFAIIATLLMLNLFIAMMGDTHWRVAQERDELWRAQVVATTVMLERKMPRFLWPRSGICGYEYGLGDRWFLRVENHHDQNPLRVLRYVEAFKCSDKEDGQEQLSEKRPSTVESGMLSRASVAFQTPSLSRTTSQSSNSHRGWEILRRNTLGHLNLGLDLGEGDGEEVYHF
UniProt Q9XSM3, whole entry L475A: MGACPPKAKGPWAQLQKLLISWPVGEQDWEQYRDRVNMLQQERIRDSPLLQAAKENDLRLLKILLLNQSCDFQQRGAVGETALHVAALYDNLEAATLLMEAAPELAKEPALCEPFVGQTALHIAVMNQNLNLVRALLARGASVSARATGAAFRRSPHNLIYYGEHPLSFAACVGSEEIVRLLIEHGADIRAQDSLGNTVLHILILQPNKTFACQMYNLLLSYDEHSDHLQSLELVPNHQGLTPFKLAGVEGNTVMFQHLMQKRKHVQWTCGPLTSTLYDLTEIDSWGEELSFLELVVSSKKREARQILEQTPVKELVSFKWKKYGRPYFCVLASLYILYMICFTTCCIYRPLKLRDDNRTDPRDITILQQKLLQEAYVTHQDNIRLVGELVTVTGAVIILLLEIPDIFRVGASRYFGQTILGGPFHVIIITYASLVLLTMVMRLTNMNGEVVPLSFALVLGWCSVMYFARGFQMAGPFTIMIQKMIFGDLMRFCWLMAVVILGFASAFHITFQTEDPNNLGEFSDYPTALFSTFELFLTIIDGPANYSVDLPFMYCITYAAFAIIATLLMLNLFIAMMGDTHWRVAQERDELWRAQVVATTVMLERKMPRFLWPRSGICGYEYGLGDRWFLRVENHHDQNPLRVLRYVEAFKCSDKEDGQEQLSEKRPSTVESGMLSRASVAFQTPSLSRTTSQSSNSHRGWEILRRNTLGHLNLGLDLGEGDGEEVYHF

Compound | IC50 (TRPV5) [nM] | IC50 (wild-type rbTRPV5) [µM] | IC50 (rbTRPV5 F472A mutant) [µM] | IC50 (rbTRPV5 L475A mutant) [µM]
Clc1ccc(COC(Cn2ccnc2)c2ccc(Cl)cc2Cl)c(Cl)c1 (centres unmarked) [miconazole] | ~1700 |  |  | 
Clc1ccc(COC(Cn2ccnc2)c2ccc(Cl)cc2Cl)cc1 (centres unmarked) [econazole] | 1300 to 2000 | 13 ± 2 | > 30 | > 30

— paper PMC10872542 (Structure (London, England : 1993), 2023)
